Source: publication PMC7862700
Only a part is listed here, and it is no random draw. At the low end of the ranking, values are background and their order means little.

Target: SPI1 (UniProt P17947)
Test: DAPPL (digital affinity profiling via proximity ligation, sequencing)
Settings: 10 mM Tris-HCl pH 7.5, 50 mM NaCl, 1 mM DTT, 4% glycerol, room temperature, 30 min; GST-TFs on glutathione beads, 16-mer random dsDNA library, 0.1% …; high values mean tight binding; double strand, one strand shown; scale: fold enrichment (6-mer frequency, TF over GST control)

Sequence	binding signal
GAGCTC	0.846
AGGTTC	0.831
ACGTCC	1.49
CACCCA	0.968
CCGTAT	1.26
AGGATA	0.897
CACGCA	0.944
ACAAAG	0.925
TCTTCG	1.47
CATGAT	1.03
ATGCCT	1.32
CCACTG	1.16
GCGATC	1
TAATCG	1.02
CTGCGC	1.31
CGTCGA	0.91
CGCCAC	0.955
CAAAGA	0.989
CCTGAA	1.35

Sequence	binding signal
CGTTTG	0.98
AATGTG	0.983
CGGAAC	1.29
TTACTT	1.59
GAGCTT	0.972
CGGACC	0.764
GTATTG	0.92
AAACTC	1.13
CGGATC	0.92
CTCATC	1.21
TTAGTC	0.798
GCCATC	0.935
CGCGCC	0.985
CCCGCG	0.882
CGCGAT	1.09
CATCAA	0.973
ACTCTG	1.26
CTGAAC	1.36
ATCAAG	0.897

Random excerpt: 2 entries already listed
Sequence	binding signal
ATCAAG	0.897
TTACTT	1.59
